{
  "source": "the supplement of paper PMC8728848",
  "binders": {"B1": {"name": "LlpA (Arthrobacter sp) (protein)", "chain": "MGSSHHHHHHSSGLVPRGSHMTLHPETALRPGAAATSPNSRYRLLYQTDGNLVLYGPDGPLWDSGTNGHGAGACIMQADGNLVLYGPNDEYVWDTETDNNPGSRLVIQDDGNAVIYRPDGSPLWATETCQPPGSADSHVLQSGSTLTPTHGIRSANGLYGLLYQTDGNLVFYGPDGPLWDSGTNGRGAGACIMQPDGNLVLYGPHDEYVWDTETDNNPGSRLVIQDDGNAVIYRPDGNPTWVTGTH"}},
  "assay_in_all_cases": "glycan array binding signal (z-score within array); higher = stronger binding",
  "details_in_all_cases": "glycan notation: IUPAC condensed, linker removed",
  "key": {"[1]": {"target": "Neu5Ac(a2-3)Gal(b1-3)GlcNAc", "procedure,_shortened": "(§1)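 The binding signal is a Z-score computed within each array and averaged over linkers. Arrays of the same protein sequence at different concentrations or buffers were also averaged together. Data originate from 3228 arrays in the Consortium for Functional Glycomics database, kept only where the protein sequence was available.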"}, "[2]": {"target": "Neu5Ac(a2-3)Gal(b1-3)GlcNAc(b1-2)Man", "procedure,_shortened": "as §1"}, "[3]": {"target": "Neu5Ac(a2-3)Gal(b1-3)GlcNAc(b1-2)Man(a1-3)[GlcNAc(b1-4)][Neu5Ac(a2-3)Gal(b1-3)GlcNAc(b1-2)Man(a1-6)]Man(b1-4)GlcNAc(b1-4)GlcNAc", "procedure,_shortened": "as §1"}, "[4]": {"target": "Neu5Ac(a2-3)Gal(b1-3)GlcNAc(b1-2)Man(a1-3)[Neu5Ac(a2-3)Gal(b1-3)GlcNAc(b1-2)Man(a1-6)]Man(b1-4)GlcNAc(b1-4)GlcNAc", "procedure,_shortened": "as §1"}, "[5]": {"target": "Neu5Ac(a2-3)Gal(b1-3)GlcNAc(b1-2)[Neu5Ac(a2-3)Gal(b1-3)GlcNAc(b1-4)]Man(a1-6)[Neu5Ac(a2-3)Gal(b1-3)GlcNAc(b1-2)Man(a1-3)]Man(b1-4)GlcNAc(b1-4)GlcNAc", "procedure,_shortened": "as §1"}, "[6]": {"target": "Neu5Ac(a2-3)Gal(b1-3)GlcNAc(b1-3)Gal(b1-3)GlcNAc", "procedure,_shortened": "as §1"}, "[7]": {"target": "Neu5Ac(a2-3)Gal(b1-3)GlcNAc(b1-3)Gal(b1-4)GlcNAc", "procedure,_shortened": "as §1"}, "[8]": {"target": "Neu5Ac(a2-3)Gal(b1-3)GlcNAc(b1-3)GalNAc", "procedure,_shortened": "as §1"}, "[9]": {"target": "Neu5Ac(a2-3)Gal(b1-3)GlcNAc(b1-6)GalNAc", "procedure,_shortened": "as §1"}, "[10]": {"target": "Neu5Ac(a2-3)Gal(b1-3)GlcNAc6S", "procedure,_shortened": "as §1"}, "[11]": {"target": "Neu5Ac(a2-3)Gal(b1-3)[Fuc(a1-4)]GlcNAc", "procedure,_shortened": "as §1"}, "[12]": {"target": "Neu5Ac(a2-3)Gal(b1-3)[Fuc(a1-4)]GlcNAc(b1-3)Gal(b1-3)[Fuc(a1-4)]GlcNAc", "procedure,_shortened": "as §1"}, "[13]": {"target": "Neu5Ac(a2-3)Gal(b1-3)[Fuc(a1-4)]GlcNAc(b1-3)Gal(b1-4)[Fuc(a1-3)]GlcNAc", "procedure,_shortened": "as §1"}, "[14]": {"target": "Neu5Ac(a2-3)Gal(b1-3)[GlcNAc(b1-6)]GalNAc", "procedure,_shortened": "as §1"}, "[15]": {"target": "Neu5Ac(a2-3)Gal(b1-3)[Neu5Ac(a2-6)]GalNAc", "procedure,_shortened": "as §1"}, "[16]": {"target": "Neu5Ac(a2-3)Gal(b1-3)[Neu5Ac(a2-6)]GlcNAc(b1-3)[Fuc(a1-3)[Gal(b1-4)]GlcNAc(b1-6)]Gal(b1-4)Glc", "procedure,_shortened": "as §1"}, "[17]": {"target": "Neu5Ac(a2-3)Gal(b1-3)]Neu5Ac(a2-3)Gal(b1-4)]GlcNAc", "procedure,_shortened": "as §1"}, "Neu5Ac(a2-3)Gal(b1-4)Glc": {"target": "Neu5Ac(a2-3)Gal(b1-4)Glc", "procedure,_shortened": "as §1"}, "[18]": {"target": "Neu5Ac(a2-3)Gal(b1-4)GlcNAc", "procedure,_shortened": "as §1"}, "[19]": {"target": "Neu5Ac(a2-3)Gal(b1-4)GlcNAc(b1-2)Man", "procedure,_shortened": "as §1"}, "[20]": {"target": "Neu5Ac(a2-3)Gal(b1-4)GlcNAc(b1-2)Man(a1-3)[GlcNAc(b1-4)][Neu5Ac(a2-3)Gal(b1-4)GlcNAc(b1-2)Man(a1-6)]Man(b1-4)GlcNAc(b1-4)GlcNAc", "procedure,_shortened": "as §1"}, "[21]": {"target": "Neu5Ac(a2-3)Gal(b1-4)GlcNAc(b1-2)Man(a1-3)[Neu5Ac(a2-3)Gal(b1-4)GlcNAc(b1-2)Man(a1-6)]Man(b1-4)GlcNAc(b1-4)GlcNAc", "procedure,_shortened": "as §1"}, "[22]": {"target": "Neu5Ac(a2-3)Gal(b1-4)GlcNAc(b1-2)Man(a1-3)[Neu5Ac(a2-3)Gal(b1-4)GlcNAc(b1-2)Man(a1-6)]Man(b1-4)GlcNAc(b1-4)[Fuc(a1-6)]GlcNAc", "procedure,_shortened": "as §1"}, "[23]": {"target": "Neu5Ac(a2-3)Gal(b1-4)GlcNAc(b1-2)Man(a1-3)[Neu5Ac(a2-6)Gal(b1-4)GlcNAc(b1-2)Man(a1-6)]Man(b1-4)GlcNAc(b1-4)GlcNAc", "procedure,_shortened": "as §1"}, "[24]": {"target": "Neu5Ac(a2-3)Gal(b1-4)GlcNAc(b1-2)[Neu5Ac(a2-3)Gal(b1-4)GlcNAc(b1-4)]Man(a1-3)[GlcNAc(b1-4)][Neu5Ac(a2-3)Gal(b1-4)GlcNAc(b1-2)[Neu5Ac(a2-3)Gal(b1-4)GlcNAc(b1-6)]Man(a1-6)]Man(b1-4)GlcNAc(b1-4)GlcNAc", "procedure,_shortened": "as §1"}, "[25]": {"target": "Neu5Ac(a2-3)Gal(b1-4)GlcNAc(b1-2)[Neu5Ac(a2-3)Gal(b1-4)GlcNAc(b1-4)]Man(a1-3)[GlcNAc(b1-4)][Neu5Ac(a2-3)Gal(b1-4)GlcNAc(b1-4)Man(a1-6)]Man(b1-4)GlcNAc(b1-4)GlcNAc", "procedure,_shortened": "as §1"}, "[26]": {"target": "Neu5Ac(a2-3)Gal(b1-4)GlcNAc(b1-2)[Neu5Ac(a2-3)Gal(b1-4)GlcNAc(b1-6)]Man(a1-6)[Neu5Ac(a2-3)Gal(b1-4)GlcNAc(b1-2)Man(a1-3)][GlcNAc(b1-4)]Man(b1-4)GlcNAc(b1-4)GlcNAc", "procedure,_shortened": "as §1"}, "[27]": {"target": "Neu5Ac(a2-3)Gal(b1-4)GlcNAc(b1-3)Gal", "procedure,_shortened": "as §1"}, "[28]": {"target": "Neu5Ac(a2-3)Gal(b1-4)GlcNAc(b1-3)Gal(b1-3)GlcNAc", "procedure,_shortened": "as §1"}, "[29]": {"target": "Neu5Ac(a2-3)Gal(b1-4)GlcNAc(b1-3)Gal(b1-4)GlcNAc", "procedure,_shortened": "as §1"}, "[30]": {"target": "Neu5Ac(a2-3)Gal(b1-4)GlcNAc(b1-3)Gal(b1-4)GlcNAc(b1-2)Man(a1-3)[Neu5Ac(a2-3)Gal(b1-4)GlcNAc(b1-3)Gal(b1-4)GlcNAc(b1-2)Man(a1-6)]Man(b1-4)GlcNAc(b1-4)GlcNAc", "procedure,_shortened": "as §1"}, "[31]": {"target": "Neu5Ac(a2-3)Gal(b1-4)GlcNAc(b1-3)Gal(b1-4)GlcNAc(b1-3)Gal(b1-4)GlcNAc", "procedure,_shortened": "as §1"}, "[32]": {"target": "Neu5Ac(a2-3)Gal(b1-4)GlcNAc(b1-3)Gal(b1-4)GlcNAc(b1-3)Gal(b1-4)GlcNAc(b1-2)Man(a1-3)[Neu5Ac(a2-3)Gal(b1-4)GlcNAc(b1-3)Gal(b1-4)GlcNAc(b1-3)Gal(b1-4)GlcNAc(b1-2)Man(a1-6)]GalNAc", "procedure,_shortened": "as §1"}, "[33]": {"target": "Neu5Ac(a2-3)Gal(b1-4)GlcNAc(b1-3)Gal(b1-4)GlcNAc(b1-3)GalNAc", "procedure,_shortened": "as §1"}, "[34]": {"target": "Neu5Ac(a2-3)Gal(b1-4)GlcNAc(b1-3)Gal(b1-4)GlcNAc(b1-3)[Neu5Ac(a2-3)Gal(b1-4)GlcNAc(b1-3)Gal(b1-4)GlcNAc(b1-6)]GalNAc", "procedure,_shortened": "as §1"}, "[35]": {"target": "Neu5Ac(a2-3)Gal(b1-4)GlcNAc(b1-3)Gal(b1-4)GlcNAc(b1-6)[Gal(b1-3)]GalNAc", "procedure,_shortened": "as §1"}, "[36]": {"target": "Neu5Ac(a2-3)Gal(b1-4)GlcNAc(b1-3)Gal(b1-4)[Fuc(a1-3)]GlcNAc", "procedure,_shortened": "as §1"}, "[37]": {"target": "Neu5Ac(a2-3)Gal(b1-4)GlcNAc(b1-3)GalNAc", "procedure,_shortened": "as §1"}},
  "note": "The other results are listed elsewhere or left out.",
  "data": [
    {"binder": "B1", "values": [
      {"measurement": "glycan array binding signal (z-score)", "setting": "[1]", "value": 0.653},
      {"measurement": "glycan array binding signal (z-score)", "setting": "[2]", "value": -0.418},
      {"measurement": "glycan array binding signal (z-score)", "setting": "[3]", "value": -0.024},
      {"measurement": "glycan array binding signal (z-score)", "setting": "[4]", "value": -0.65},
      {"measurement": "glycan array binding signal (z-score)", "setting": "[5]", "value": 1.49},
      {"measurement": "glycan array binding signal (z-score)", "setting": "[6]", "value": -1.42},
      {"measurement": "glycan array binding signal (z-score)", "setting": "[7]", "value": -0.694},
      {"measurement": "glycan array binding signal (z-score)", "setting": "[8]", "value": -1.13},
      {"measurement": "glycan array binding signal (z-score)", "setting": "[9]", "value": 0.849},
      {"measurement": "glycan array binding signal (z-score)", "setting": "[10]", "value": 1.33},
      {"measurement": "glycan array binding signal (z-score)", "setting": "[11]", "value": -0.881},
      {"measurement": "glycan array binding signal (z-score)", "setting": "[12]", "value": 0.539},
      {"measurement": "glycan array binding signal (z-score)", "setting": "[13]", "value": 0.903},
      {"measurement": "glycan array binding signal (z-score)", "setting": "[14]", "value": -0.462},
      {"measurement": "glycan array binding signal (z-score)", "setting": "[15]", "value": -0.644},
      {"measurement": "glycan array binding signal (z-score)", "setting": "[16]", "value": 0.69},
      {"measurement": "glycan array binding signal (z-score)", "setting": "[17]", "value": 0.522},
      {"measurement": "glycan array binding signal (z-score)", "setting": "Neu5Ac(a2-3)Gal(b1-4)Glc", "value": 0.556},
      {"measurement": "glycan array binding signal (z-score)", "setting": "[18]", "value": 0.319},
      {"measurement": "glycan array binding signal (z-score)", "setting": "[19]", "value": 1.07},
      {"measurement": "glycan array binding signal (z-score)", "setting": "[20]", "value": -0.156},
      {"measurement": "glycan array binding signal (z-score)", "setting": "[21]", "value": -1.12},
      {"measurement": "glycan array binding signal (z-score)", "setting": "[22]", "value": 0.142},
      {"measurement": "glycan array binding signal (z-score)", "setting": "[23]", "value": 0.29},
      {"measurement": "glycan array binding signal (z-score)", "setting": "[24]", "value": -0.255},
      {"measurement": "glycan array binding signal (z-score)", "setting": "[25]", "value": -0.992},
      {"measurement": "glycan array binding signal (z-score)", "setting": "[26]", "value": -0.439},
      {"measurement": "glycan array binding signal (z-score)", "setting": "[27]", "value": -0.555},
      {"measurement": "glycan array binding signal (z-score)", "setting": "[28]", "value": 0.273},
      {"measurement": "glycan array binding signal (z-score)", "setting": "[29]", "value": 0.79},
      {"measurement": "glycan array binding signal (z-score)", "setting": "[30]", "value": -0.137},
      {"measurement": "glycan array binding signal (z-score)", "setting": "[31]", "value": 0.461},
      {"measurement": "glycan array binding signal (z-score)", "setting": "[32]", "value": 1.79},
      {"measurement": "glycan array binding signal (z-score)", "setting": "[33]", "value": 0.223},
      {"measurement": "glycan array binding signal (z-score)", "setting": "[34]", "value": -0.062},
      {"measurement": "glycan array binding signal (z-score)", "setting": "[35]", "value": -1.08},
      {"measurement": "glycan array binding signal (z-score)", "setting": "[36]", "value": -0.49},
      {"measurement": "glycan array binding signal (z-score)", "setting": "[37]", "value": 0.071}
    ]}
  ]
}
